Consider 2 sequences from publication PMC9481871.

By UniProt entry, the sequences of proteins in these tests, tags left out. Residues count along the entry.
UniProt P01137, 279-390: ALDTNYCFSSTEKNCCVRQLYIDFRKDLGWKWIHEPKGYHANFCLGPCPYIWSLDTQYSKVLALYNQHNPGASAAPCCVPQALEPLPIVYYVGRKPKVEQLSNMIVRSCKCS

For data set [1], the target named is human TGF-β1 (active) (Homo sapiens) (UniProt P01137). Description: SPR. The conditions noted are these: 2'-OMe at 1,4,8-12,16,17,23-27,30-33, 2'-F at 3,5,19,20,21, others 2'-OH, 5' 40-kDa PEG, 3' inverted dT, SPR (Biacore): 145 mM NaCl, 5.4 mM KCl, 0.8 mM MgCl2, 1.8 mM CaCl2, 20 mM Tris-HCl pH 7.6, 0.05% Tween 20, temperature not given, recombinant protein, label: 5' biotin when immobilized on SA chip.

Data set [2] shares this target. Briefly: competition with a labelled probe. Particulars: SPR: 8 nM aptamer (4 nM in Fig 1C) inhibits 4 nM TGF-β1 binding to TGF-βRII/Fc; 2'-fluoro pyrimidines (SELEX with 2'-F-CTP and 2'-F-UTP); parent of APT-β1-OMe without 2'-OMe; recombinant protein; letters put together from the description.

For at least one entry, the source does not settle the construct or the ends of the probe. For part of these data: At least one verdict rests on a figure or table, not on a statement of the authors.

Turning to “GGCAUAAGGGAGGGGAGACUUGUGGAGGGCAAG [APT-β1-OMe-P]”, the Kd in data set [1] (TGF-β1 immobilized on CM4 (624 RU), univalent model, distorted sensorgrams, accuracy uncertain) stood at 1.77 nM; in data set [1] (aptamer immobilized on SA chip (67.1 RU), bivalent model KD1, accuracy uncertain per authors) it was 1.13 nM. For “GGCAUAAGGGAGGGGAGACUUGUGGAGGGCAAG [APT-β1]”, the binding result in data set [2] is listed as “binds”.
